Measurements published in publication PMC10543712.
No constants are given. Whether binding was seen depends on the method and setting. Binding seen in cells or lysates may run through a third protein.

Amino acid sequences for entries named in this document (tags omitted). A change or cut given only in a name is not applied to a line headed by its entry.
UniProt P63094: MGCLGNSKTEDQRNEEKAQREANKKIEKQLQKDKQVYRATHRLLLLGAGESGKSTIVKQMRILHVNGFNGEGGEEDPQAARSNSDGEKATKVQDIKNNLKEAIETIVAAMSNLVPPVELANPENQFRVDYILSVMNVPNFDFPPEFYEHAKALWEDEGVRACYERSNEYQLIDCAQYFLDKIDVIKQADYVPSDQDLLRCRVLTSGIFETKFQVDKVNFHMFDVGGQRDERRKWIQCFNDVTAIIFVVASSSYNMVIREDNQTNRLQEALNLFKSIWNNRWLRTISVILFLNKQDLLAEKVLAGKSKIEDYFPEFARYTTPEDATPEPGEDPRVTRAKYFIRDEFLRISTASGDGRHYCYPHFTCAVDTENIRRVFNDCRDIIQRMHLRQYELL
UniProt P97784: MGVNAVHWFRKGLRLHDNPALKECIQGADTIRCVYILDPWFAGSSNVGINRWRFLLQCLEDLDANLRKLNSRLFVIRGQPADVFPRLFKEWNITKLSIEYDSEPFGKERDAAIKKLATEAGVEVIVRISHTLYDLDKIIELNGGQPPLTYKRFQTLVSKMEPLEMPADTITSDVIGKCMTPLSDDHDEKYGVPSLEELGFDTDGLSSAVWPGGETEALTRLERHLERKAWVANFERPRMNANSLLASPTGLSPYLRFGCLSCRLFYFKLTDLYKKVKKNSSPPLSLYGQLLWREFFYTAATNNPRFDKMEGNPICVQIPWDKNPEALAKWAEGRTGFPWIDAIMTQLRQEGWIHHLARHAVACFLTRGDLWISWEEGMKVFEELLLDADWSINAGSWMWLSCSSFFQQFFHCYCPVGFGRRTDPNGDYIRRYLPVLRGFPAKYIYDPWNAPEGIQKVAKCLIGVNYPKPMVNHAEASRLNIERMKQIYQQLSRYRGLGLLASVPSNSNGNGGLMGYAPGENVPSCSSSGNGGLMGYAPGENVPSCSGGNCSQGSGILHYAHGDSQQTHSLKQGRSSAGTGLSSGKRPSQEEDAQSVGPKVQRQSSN

Molecular target: HA-tagged Gαs (UniProt P63094)
Experiment: co-IP; HA-tagged Gαs and FLAG-tagged CRY1 (or Cry1Δ11) coexpressed in HEK 293T cells; about 1 mg whole cell lysate (150 mM NaCl, 1% NP-40, 2 mM EDTA, 50 mM Tris pH 8.0) with 1 μg HA or FLAG Ab overnight at 4°C, protein G agarose; immunoblot with HA or FLAG Ab

binding: no binding
Substance: Cry1Δ11 (from UniProt P97784)
